# The other results are listed elsewhere or left out.
# The chains behind the UniProt entries cited, without tags or fusion partners.
# UniProt Q0JBA9, entry or part of it: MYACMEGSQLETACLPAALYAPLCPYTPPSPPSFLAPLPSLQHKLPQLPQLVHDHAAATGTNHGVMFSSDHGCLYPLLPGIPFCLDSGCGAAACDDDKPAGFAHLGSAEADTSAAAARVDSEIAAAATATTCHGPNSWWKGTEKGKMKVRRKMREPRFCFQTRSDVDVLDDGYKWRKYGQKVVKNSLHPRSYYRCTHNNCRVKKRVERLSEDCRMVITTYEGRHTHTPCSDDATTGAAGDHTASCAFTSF
# Molecular target: OsWRKY34 (Oryza sativa, UniProt Q0JBA9 1-250)
# Assay: protein-binding microarray (RPBM); PBS, 2% BSA, 51.3 ng/ul salmon testes DNA, 50 uM zinc acetate, 200 nM TF, 25 C, 1 h; high values mean tight binding
# Settings: protein: recombinant; tags: N-terminal polyhistidine and DsRed monomer fusion (pET32a); label: CyDye5-dUTP incorporated in the synthesized complementary strand; 3' TTTTT single-stranded linker to array surface; dsDNA, one strand shown
# In short: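 An Axon 4000B scanner gave the binding signal as per-feature fluorescence intensity in arbitrary units. This followed washing of a custom Agilent array that had been incubated for 1 h at 25 °C with 200 nM protein in PBS, 2% BSA, salmon testes DNA and 50 µM zinc acetate. The proteins were transcription factors fused at the N-terminus to polyhistidine and DsRed, expressed in E. coli BL21-CodonPlus and purified on Ni–NTA.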
row,Sequence,binding signal
1,ATCGTCTCCTACCTCGCCTCTCTTTCCTTTTTTCCGTCGACGGAGTCACCTAGTGCAG,11900 fluorescence intensity (a.u.)
2,GCATACGCTTCTCGTCTGGCTATATATTAGTATTACAAAACGGAGTCACCTAGTGCAG,9640 fluorescence intensity (a.u.)
3,TGCTTGAATGGTGCTCCACTTGCATTGACTTTCGGCGGCGCGGAGTCACCTAGTGCAG,9050 fluorescence intensity (a.u.)
4,TTTTTTTACTGGGAGATTTTTTTTCTTTTTCTACTGGAGTCGGAGTCACCTAGTGCAG,10100 fluorescence intensity (a.u.)
5,TCGCCAAGCCACCTCCGCCGCCGAAGCCACCACCGCTTCCCGGAGTCACCTAGTGCAG,8550 fluorescence intensity (a.u.)
6,CCGTTCGTCTTATTTAATTTTTTTTGTGATTAGTATTTTTCGGAGTCACCTAGTGCAG,10300 fluorescence intensity (a.u.)
7,CGCTGCCGCCGCCCTGTCGCACCGTCCCCGCCATCCGCTACGGAGTCACCTAGTGCAG,10100 fluorescence intensity (a.u.)
8,TTTGGTTTGCGGCCTAAATTGCCTTACCAATTTTTGTCAACGGAGTCACCTAGTGCAG,9740 fluorescence intensity (a.u.)
9,CGCACGGGTGCCATGTCCAACGTCCGTCATTGATTATGCCCGGAGTCACCTAGTGCAG,8640 fluorescence intensity (a.u.)
10,CATCCGTTTCAAAATGTTTGACACCGTTGACTTTTTAGCACGGAGTCACCTAGTGCAG,26200 fluorescence intensity (a.u.)
11,GTGGATTTTTTTTTTCTTTTCTTTTTTCGTTGTTATTTGTCGGAGTCACCTAGTGCAG,10600 fluorescence intensity (a.u.)
12,CACAGTTCGGATCCGACCACTCCACGTCTCCACCCGGCCGCGGAGTCACCTAGTGCAG,8340 fluorescence intensity (a.u.)
13,ATATTTCGGGTGAGGTCCTCTGAAAAAGTGTCTTTTCTCTCGGAGTCACCTAGTGCAG,8090 fluorescence intensity (a.u.)
14,TTAGTAGTACTTGTTTGTTGGTATGCCGTGCTGCCAAACTCGGAGTCACCTAGTGCAG,8040 fluorescence intensity (a.u.)
15,CGTCGTTGACTTTTTTAAACATATTTGACCGTTCGTCTTACGGAGTCACCTAGTGCAG,17100 fluorescence intensity (a.u.)
16,GGAATTCTCTGCTTCCTGGTGCCTCCACGTCATCCTTTTTCGGAGTCACCTAGTGCAG,10600 fluorescence intensity (a.u.)
17,ACGTAAACTTTCAACTTTTTTAACACATCGTTCCAGTTTCCGGAGTCACCTAGTGCAG,9610 fluorescence intensity (a.u.)
18,ATTTCTAGGGTTCAAATCAAATCCAACCTCACCTTGTCCTCGGAGTCACCTAGTGCAG,8880 fluorescence intensity (a.u.)
19,CCTACACCGTTGCAACACGCGTCAAACTTGCTCGATCTCTCGGAGTCACCTAGTGCAG,10300 fluorescence intensity (a.u.)
20,AACACCATCTCTCTTTTCCAACCCTTTTGCCATCGTCCTCCGGAGTCACCTAGTGCAG,9620 fluorescence intensity (a.u.)
21,CTGGTGCTCGATTCATAGTTTGACCAGCGGACCCCGTAAACGGAGTCACCTAGTGCAG,9300 fluorescence intensity (a.u.)

row,Sequence,binding signal
1,ATAACAATTTATTCTTTTTGTCAAGCTCGTCTCCAGCACCCGGAGTCACCTAGTGCAG,9140 fluorescence intensity (a.u.)
2,TGTTTGGATTGCTAATCTGCTGTGCTAAGTCTGTTTAAATCGGAGTCACCTAGTGCAG,8710 fluorescence intensity (a.u.)
3,CCCCGTCTGTTTCCACCAAATTCCGTTGATTATCACGGGACGGAGTCACCTAGTGCAG,10400 fluorescence intensity (a.u.)
4,GACTAAGGAACATTTCCTCCCCGTTGACCACAAACGAACACGGAGTCACCTAGTGCAG,14900 fluorescence intensity (a.u.)
5,TGCCGCCGCCGTCGCCCCAGAGCTCACGTTCCGCTGTCGCCGGAGTCACCTAGTGCAG,8540 fluorescence intensity (a.u.)
6,ATTTTCCCGTCTCCTTCGGCGGCATCCACCCCAATTCATCCGGAGTCACCTAGTGCAG,8430 fluorescence intensity (a.u.)
7,GGGTTAAATAGCTACTCCATCCATTTCATATTGTAAGACTCGGAGTCACCTAGTGCAG,8570 fluorescence intensity (a.u.)
8,TGTGTGCTGCTGCCTGCCTAATTATGATTTATTCCCACACCGGAGTCACCTAGTGCAG,11300 fluorescence intensity (a.u.)
9,AAAGCTGTTCTCCACTGTTTCTGTTGCAGGATCCCGTTGACGGAGTCACCTAGTGCAG,10800 fluorescence intensity (a.u.)
10,GAGCTTTTTTCTTTCTTTCTTCCATTGCTTTCCTGTATGGCGGAGTCACCTAGTGCAG,13600 fluorescence intensity (a.u.)
11,TTTGGTTTGTACGTCGTTGGTTTCGGATGTGATTTTTGCTCGGAGTCACCTAGTGCAG,8850 fluorescence intensity (a.u.)
12,GCTCCTCATCATGGTCGCTGCGCTAGGTTTCCTCATGGTGCGGAGTCACCTAGTGCAG,8890 fluorescence intensity (a.u.)
13,GAACGGGTCTCCGACTCCTCGTAGTTTTCTCTCTCTTTTTCGGAGTCACCTAGTGCAG,11900 fluorescence intensity (a.u.)
14,GCCATATATATTACCCTTATCATTACCATGGCGGGAAAGACGGAGTCACCTAGTGCAG,8630 fluorescence intensity (a.u.)
15,TCGCTCTACCGTTTCCACTCGCGGGAGCACCGCGTCCACCCGGAGTCACCTAGTGCAG,9870 fluorescence intensity (a.u.)
16,TCGTCGAACGACACCTGCACACACACGCGCACGAGCGACGCGGAGTCACCTAGTGCAG,8150 fluorescence intensity (a.u.)
17,TGCTGACTTGGCGTTGACCTGTGAAATTCTCTCGCTTCACCGGAGTCACCTAGTGCAG,11500 fluorescence intensity (a.u.)
18,AATGGTTGGTTGTCTGCTGGTGTTAACTGGAGCGGAATTACGGAGTCACCTAGTGCAG,10500 fluorescence intensity (a.u.)
19,TACTGTCAATTTTCACAACCTCTAGAGGATCTCCATTGACCGGAGTCACCTAGTGCAG,8170 fluorescence intensity (a.u.)
20,CTACGATACACCGCTTGTTTCTGTTTTTCTTATCTAGGAACGGAGTCACCTAGTGCAG,9180 fluorescence intensity (a.u.)
21,AAGAAACAGATCCAACCAATTCGCTCGCTTAAGCCGCCGGCGGAGTCACCTAGTGCAG,8330 fluorescence intensity (a.u.)

row,Sequence,binding signal
1,CGCACCTCCTTACGCTCACCGTACACAAGATCAAAATTTTCGGAGTCACCTAGTGCAG,9880 fluorescence intensity (a.u.)
2,CCACTGACTACTGATGGGTGTGTTGATAGTGTTTTGTCAGCGGAGTCACCTAGTGCAG,8870 fluorescence intensity (a.u.)
3,ATTGATTTTTTTTCCATATTTAATCCTTTATGTATGTGTCCGGAGTCACCTAGTGCAG,8060 fluorescence intensity (a.u.)
4,TTAAATGTGTGATTTGTTTTGTTATTAGTCTACGTTTAATCGGAGTCACCTAGTGCAG,8850 fluorescence intensity (a.u.)
5,AACCGCCTAGAGAGTCAAATTGCATCGGTTTCAATAGTTTCGGAGTCACCTAGTGCAG,8070 fluorescence intensity (a.u.)
6,GTTTCCTTCGTTTCAGATTACTCATTATTTTAGCTTTTTTCGGAGTCACCTAGTGCAG,13800 fluorescence intensity (a.u.)
7,CATCCGTTCCATTTTAAGTGCAACTTTCCACGCTCAATTTCGGAGTCACCTAGTGCAG,10500 fluorescence intensity (a.u.)
8,TCTTCATCGCCCACGTGGTCCACTCCGCCGCGAGCCGCGCCGGAGTCACCTAGTGCAG,11700 fluorescence intensity (a.u.)
9,CGCCGCCGCCACCGCCACCGCCGCCGCCGCCTTGCGCCTCCGGAGTCACCTAGTGCAG,8700 fluorescence intensity (a.u.)
10,CGCAAACCGTGACTTTCCGTGGGCCCCACCACCCCACCACCGGAGTCACCTAGTGCAG,12000 fluorescence intensity (a.u.)
11,CCGTTGTTGTGTGTGTTCATGTGCCTCTGTACACATCAGACGGAGTCACCTAGTGCAG,9670 fluorescence intensity (a.u.)
12,CTCTTGATTGTATCCTTAGGCACTTTGTATATTCTCGAGTCGGAGTCACCTAGTGCAG,8540 fluorescence intensity (a.u.)
13,TAACGCGATCCACTTGTGCCTCTTGTCGGTCCAGTTTGAACGGAGTCACCTAGTGCAG,8060 fluorescence intensity (a.u.)
14,ACCATTTCATAGTAGTTACAAATTTAAAATGTTTGATTCCCGGAGTCACCTAGTGCAG,8380 fluorescence intensity (a.u.)
15,GGAGTGGATGTGTGGAGGGGTTGGAGTTGGAATGTGAGATCGGAGTCACCTAGTGCAG,13200 fluorescence intensity (a.u.)
16,CTCTGTATTTTGTTAGGCAAATCTGCAATCGGAGAAGTCACGGAGTCACCTAGTGCAG,8690 fluorescence intensity (a.u.)
17,ACACACTCCCACGCACTTTGCCCTTCTCTTCACGGGGCTTCGGAGTCACCTAGTGCAG,10600 fluorescence intensity (a.u.)
18,AAAGAGTGGAAGCAATGTGGAGTTATATGTTTAGCAAAACCGGAGTCACCTAGTGCAG,8210 fluorescence intensity (a.u.)
19,AGAGTCTCCCTTGCGCCACGTTTCTCGCGTCCGTTCTTCTCGGAGTCACCTAGTGCAG,9270 fluorescence intensity (a.u.)
20,GACTCCTCCTGCTCTGTTTGTTCGAGTAATTAATTAAGCTCGGAGTCACCTAGTGCAG,10300 fluorescence intensity (a.u.)
21,CAGCAGCCGCCTCCGCCGCCGCCACCGCCGCCGCGCGGTCCGGAGTCACCTAGTGCAG,9340 fluorescence intensity (a.u.)

# Pulled one by one from above, 7 records:
row,Sequence,binding signal
15,GGAGTGGATGTGTGGAGGGGTTGGAGTTGGAATGTGAGATCGGAGTCACCTAGTGCAG,13200 fluorescence intensity (a.u.)
19,AGAGTCTCCCTTGCGCCACGTTTCTCGCGTCCGTTCTTCTCGGAGTCACCTAGTGCAG,9270 fluorescence intensity (a.u.)
14,ACCATTTCATAGTAGTTACAAATTTAAAATGTTTGATTCCCGGAGTCACCTAGTGCAG,8380 fluorescence intensity (a.u.)
5,AACCGCCTAGAGAGTCAAATTGCATCGGTTTCAATAGTTTCGGAGTCACCTAGTGCAG,8070 fluorescence intensity (a.u.)
21,CAGCAGCCGCCTCCGCCGCCGCCACCGCCGCCGCGCGGTCCGGAGTCACCTAGTGCAG,9340 fluorescence intensity (a.u.)
6,GTTTCCTTCGTTTCAGATTACTCATTATTTTAGCTTTTTTCGGAGTCACCTAGTGCAG,13800 fluorescence intensity (a.u.)
16,CTCTGTATTTTGTTAGGCAAATCTGCAATCGGAGAAGTCACGGAGTCACCTAGTGCAG,8690 fluorescence intensity (a.u.)

# Additional records follow.

row,Sequence,binding signal
1,TTTGCCGCACCACAGCGTAGTCTCGCCTCGCCTTCCGGAACGGAGTCACCTAGTGCAG,12600 fluorescence intensity (a.u.)
2,TATCATTATATAGAAAGCGTTGCGTTGTTGACTCGTTGTACGGAGTCACCTAGTGCAG,8490 fluorescence intensity (a.u.)
3,TTCATGTATAGGAACCATCTTTGCTTAGTTTTTGAATCTCCGGAGTCACCTAGTGCAG,9340 fluorescence intensity (a.u.)
4,ATTCCAACGCTACGTATCCAACCGCGATCGCTTCGTCAAACGGAGTCACCTAGTGCAG,9320 fluorescence intensity (a.u.)
5,CTGTTTGGTAGAGTTTGCCACTTTCGAATGAAATTCGAACCGGAGTCACCTAGTGCAG,10100 fluorescence intensity (a.u.)
6,GCGACCCAAATGACGTCCACGTGTAAATATCTTCGCTCCGCGGAGTCACCTAGTGCAG,8360 fluorescence intensity (a.u.)
7,GATATCGAATGATTGTACTCGAAACACATGCCATGCTTCTCGGAGTCACCTAGTGCAG,8150 fluorescence intensity (a.u.)
8,GACAGTTTCCCGCGCTTTTTTTTTGCCCCTCTCTCCGGCGCGGAGTCACCTAGTGCAG,11300 fluorescence intensity (a.u.)
9,GACTTCAGATAGTTCTCCTGGTGCTGTTTTTATCGTCCAGCGGAGTCACCTAGTGCAG,9990 fluorescence intensity (a.u.)
10,AAAAACTGGGCCAGCTTTTTGTTTTTTTTACCACCCACAGCGGAGTCACCTAGTGCAG,9010 fluorescence intensity (a.u.)
11,AAGCCACACGAGCCACCGGAAGCTTGACATCACAATTAAACGGAGTCACCTAGTGCAG,8170 fluorescence intensity (a.u.)
12,GATTTGGTTTTCGTCTGTTTATCCCAAGTTAAACTGCTATCGGAGTCACCTAGTGCAG,12200 fluorescence intensity (a.u.)
13,TGAAACTAGTGCAGCACACCTACTTTGGTTTCTTGATTTTCGGAGTCACCTAGTGCAG,8060 fluorescence intensity (a.u.)
14,TCCACCTTGGAAAACGGCTCACGCAGCATCCTTTGTTTTTCGGAGTCACCTAGTGCAG,9520 fluorescence intensity (a.u.)
15,TTTCTTTTCTTTTGAAATCATATACTTATTATTCTTCTGTCGGAGTCACCTAGTGCAG,9080 fluorescence intensity (a.u.)
16,AGTCCGCGTACGTCCGCACCCGCCCGCTGCATGCCACCTACGGAGTCACCTAGTGCAG,8140 fluorescence intensity (a.u.)
17,GTGGCGCGAGGGGAGGGAAGGGTAGGGCGGCGCGGCGGCGCGGAGTCACCTAGTGCAG,9730 fluorescence intensity (a.u.)
18,CCCTCTCTCACGACAACATCATCACTTCATTATCACATGACGGAGTCACCTAGTGCAG,9350 fluorescence intensity (a.u.)
19,GAGTGCCTATTCAATTGCCTTTTGTTTGTCAACGTTTCTCCGGAGTCACCTAGTGCAG,8080 fluorescence intensity (a.u.)
20,GTCATTTCTATGTTTGCAATTATCTATTTTACATTTACATCGGAGTCACCTAGTGCAG,9200 fluorescence intensity (a.u.)
21,ATATACGGCCGCCTCGATCGAGCTCGCACCACACTATCTTCGGAGTCACCTAGTGCAG,8160 fluorescence intensity (a.u.)

# From article PMC7819943, “Rice protein-binding microarrays: a tool to detect cis-acting elements near promoter regions in rice”
